Consider 2 molecules from article doi:10.1101/2020.11.29.402537.

Sequences of proteins named here, by UniProt entry; tags and fusion partners are left off.
UniProt P53350: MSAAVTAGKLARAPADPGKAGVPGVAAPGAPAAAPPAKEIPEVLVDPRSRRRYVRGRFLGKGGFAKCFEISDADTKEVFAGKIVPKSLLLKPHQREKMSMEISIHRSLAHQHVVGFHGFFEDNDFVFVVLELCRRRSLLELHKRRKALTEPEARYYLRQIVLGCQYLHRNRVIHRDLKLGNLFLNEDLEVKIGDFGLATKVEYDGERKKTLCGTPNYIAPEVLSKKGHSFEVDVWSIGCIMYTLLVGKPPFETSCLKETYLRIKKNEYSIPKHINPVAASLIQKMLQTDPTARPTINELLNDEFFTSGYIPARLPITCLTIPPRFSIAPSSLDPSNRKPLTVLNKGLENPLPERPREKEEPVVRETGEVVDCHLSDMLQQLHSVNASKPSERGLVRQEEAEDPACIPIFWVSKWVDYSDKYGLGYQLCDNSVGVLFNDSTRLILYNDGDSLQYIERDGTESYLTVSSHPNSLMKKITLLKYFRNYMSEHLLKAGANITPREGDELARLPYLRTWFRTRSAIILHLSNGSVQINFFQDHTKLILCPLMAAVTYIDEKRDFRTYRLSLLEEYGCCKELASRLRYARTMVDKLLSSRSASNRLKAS

These are yes or no findings as the source states them, for the method shown. For some of these results: Binding seen in cells or lysates may run through a third protein. Some entries that bind do so weakly or less than the wild type. Sequences can lack the tags named with a protein.

In experiment [1] the target is T1, EGFP-hMeikin C-terminal Separase cleavage fragment (C-Meikin; amino acids 155-373) (human).
T1 sequence: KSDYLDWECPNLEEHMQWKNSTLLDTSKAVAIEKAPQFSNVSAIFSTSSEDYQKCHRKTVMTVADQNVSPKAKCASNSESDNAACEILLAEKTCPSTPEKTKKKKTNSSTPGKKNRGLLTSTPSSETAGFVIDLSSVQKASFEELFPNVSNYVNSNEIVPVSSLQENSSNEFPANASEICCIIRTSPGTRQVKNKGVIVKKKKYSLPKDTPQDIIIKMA
Description: co-IP.

In experiment [2] the target is T2, EGFP-hMeikin N-terminal Separase cleavage fragment (N-Meikin; amino acids 1-154) (human).
T2 sequence: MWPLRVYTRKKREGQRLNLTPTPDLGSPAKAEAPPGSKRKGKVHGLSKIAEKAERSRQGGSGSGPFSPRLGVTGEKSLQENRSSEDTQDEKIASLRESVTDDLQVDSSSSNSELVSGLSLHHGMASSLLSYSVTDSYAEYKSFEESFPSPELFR
Description: co-IP.

Experiment [3] addresses T3, EGFP-hMeikin C-terminal kinetochore targeting domain (amino acids 328-373) (human).
T3 sequence: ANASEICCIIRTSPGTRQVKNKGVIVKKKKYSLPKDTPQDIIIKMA
The experiment in a line: co-IP.

Experiment [4] addresses T4, H2B-mScarlet-tagged N-terminal Meikin fragment of the cleavage sensor (after Separase cleavage) (human).
T4 sequence: T2 sequence
Description: dual-color H2B-cleavage sensor, live-cell imaging.

As to “Polo-like kinase 1 (Plk1) (from UniProt P53350 1-603) (enzyme)”, the values for the binding result in experiment [1], in experiment [2] and in experiment [3] were “binds”, “no binding” and “no binding”, respectively.

B1: mNeonGreen-tagged C-terminal Meikin fragment of the cleavage sensor (after Separase cleavage) (domain or fragment, UniProt A0A087WXM9 155-332)
chain: KSDYLDWECPNLEEHMQWKNSTLLDTSKAVAIEKAPQFSNVSAIFSTSSEDYQKCHRKTVMTVADQNVSPKAKCASNSESDNAACEILLAEKTCPSTPEKTKKKKTNSSTPGKKNRGLLTSTPSSETAGFVIDLSSVQKASFEELFPNVSNYVNSNEIVPVSSLQENSSNEFPANASE
For B1, the binding entry in experiment [4] is on record as “no binding”.
